Source: patent publication EP4695306A2
Results are given in words; binding and its absence hold for the method and conditions named. Some entries that bind do so weakly or less than the wild type. Tags and fused reporters may be left off the sequences shown.

By UniProt entry, the sequences of proteins in these tests, tags left out. Where a name states a change or a piece, a line headed by the entry shows the natural chain unless it says otherwise.
UniProt P01870: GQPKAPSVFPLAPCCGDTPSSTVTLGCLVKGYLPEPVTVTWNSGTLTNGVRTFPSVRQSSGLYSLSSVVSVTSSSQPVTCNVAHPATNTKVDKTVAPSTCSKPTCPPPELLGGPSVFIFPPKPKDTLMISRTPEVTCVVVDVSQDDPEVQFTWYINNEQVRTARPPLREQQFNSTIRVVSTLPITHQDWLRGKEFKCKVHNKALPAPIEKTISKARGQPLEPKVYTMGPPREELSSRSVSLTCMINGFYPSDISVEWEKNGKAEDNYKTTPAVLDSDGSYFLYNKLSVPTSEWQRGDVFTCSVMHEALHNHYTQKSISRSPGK

Biological target: rabbit IgG Fc fragment (Oryctolagus cuniculus) (UniProt P01870)
Experiment: cryo-EM of the complex

- binding: binds
B1: anti-rabbit IgG Fc nanobody TP897 (VHH)
VHH: QVQLVESGGGLVQAGDSLRLSCVASGRSLDGATMRWYRQAPGKEREFVAGIFWDEIGTEYADTAKGRFTISRDNAKNTIYLQMTNLRSEDTAMYYCNGLVFGGEYWGQGTQVTVSS
